Values from PubChem BioAssay AID504764 (Drosophila RNAi Screening Center, 2011)

Purpose: 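Genes whose knock-down alters Notch-dependent transcription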 (primary screen)
Cell system: Drosophila Kc167 cells
Knock-down reagent: long dsRNA against Drosophila genes
Time to read-out: about 5 days (4 days dsRNA, then 24 h after transfection)
Challenge: transfection of constitutively active membrane-tethered Notch lacking the extracellular domain, read 24 h later
Measurement: 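Firefly luciferase from an E(spl)m3 reporter with active Notch, plus control-promoter and uninduced reporter wells for normalisation; unnormalised counts, duplicate wells a and b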
Direction: induced reporter light, run 1, well a and induced reporter light, run 1, well b: higher = more light from the Notch target reporter with active Notch; control promoter light, run 1, well a and control promoter light, run 1, well b: higher = more light from the viral control promoter (cell number, transfection, viability); uninduced reporter light, run 1, well a: higher = more light from the Notch target reporter without active Notch
Hit rule: 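Wells with low control signal or poorly matching duplicates excluded; duplicates averaged; per source plate, z beyond ±2 for induced/control log2 ratio or beyond ±1.8 for induced/uninduced marks a hit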
Calls: active = modifier hit (raised or lowered Notch signal); inactive = not a hit
The screen tested about 22,000 reagents; below is an unselected part of those that have a named target and a result. Of all reagents, 403 (1.9%) got an active call. 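Unnormalised raw counts per well; ratio z-scores behind the hit calls and whether each hit raises or lowers signal are not deposited.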 No sequences are given here. The record does not give: the amount of reagent.

gene,DRSC id,"induced reporter light, run 1, well a","induced reporter light, run 1, well b","control promoter light, run 1, well a","control promoter light, run 1, well b","uninduced reporter light, run 1, well a",Outcome
Ir68a (Ionotropic receptor 68a),DRSC10599,86860,75845,1.13e5,61795,4435,inactive
EMC3 (ER membrane protein complex subunit 3),DRSC02989,1.26e5,1.37e5,67000,95960,18855,inactive
CG11068,DRSC19369,1.03e5,75645,1.41e5,1.10e5,11785,inactive
CG13066,DRSC09949,1.56e5,1.36e5,2.45e5,2.25e5,6985,inactive
CG9287,DRSC03186,1.81e5,2.11e5,97800,1.22e5,21070,inactive
CG9287,DRSC22790,,,,,,active
Ugt37D1 (UDP-glycosyltransferase family 37 member D1),DRSC02645,1.80e5,1.85e5,1.97e5,2.21e5,14100,inactive
Bulli,DRSC10974,2.43e5,1.88e5,2.88e5,2.70e5,16845,inactive
CG30480,DRSC06736,86555,81145,1.13e5,1.03e5,9195,inactive
CG7685,DRSC16285,1.59e5,1.64e5,1.94e5,1.98e5,10865,inactive
CG12782,DRSC04127,2.75e5,2.11e5,1.92e5,2.33e5,16780,inactive
CG8541,DRSC10989,1.87e5,1.39e5,1.43e5,1.06e5,8950,inactive
CG33648,DRSC01387,76790,79555,77580,73940,8110,inactive
Or49b (Odorant receptor 49b),DRSC07494,1.05e5,87800,1.03e5,1.07e5,8955,inactive
CG17824 (retired record),DRSC10288,2.00e5,1.77e5,2.37e5,1.71e5,7960,inactive
Cwc25,DRSC00545,27720,21325,20500,15910,1750,inactive
CG31145,DRSC13634,1.93e5,2.02e5,2.10e5,2.49e5,16755,inactive
CG31145,DRSC14206,1.33e5,1.42e5,1.64e5,1.45e5,12342,inactive
CG31145,DRSC14670,6865,6825,6955,4770,2030,inactive
CG31145,DRSC14671,2.22e5,1.50e5,2.19e5,1.93e5,14800,inactive

A few values from the entries so far:
For “induced reporter light, run 1, well a”, CG31145 [DRSC14670] is entered as 6865
For “control promoter light, run 1, well b”, CG9287 [DRSC03186] has 1.22e5
